Here are results for 77 molecules from the supplement of paper PMC5355238.

Structures can show the parent of a compound that is named as a salt. Some of the results follow. Most values come without repeats; read them as rough.

The assay deals with Reh. The assay is described as follows: S-phase gammaH2AX median, Z-score vs plate median (drug alone); higher = more S-phase DNA damage. Conditions: MK1775 concentration 0 nM; 10 µM; 4 h.
Regarding `O=C1O/C(=C/Br)CCC1c1cccc2ccccc12` (configuration not stated) [Bromoenol lactone], the “S-phase gammaH2AX median (Z-score)” value is -0.113.
For the molecule `O=c1c(-c2ccc(O)cc2)coc2cc(O)ccc12` [Daidzein], the “S-phase gammaH2AX median (Z-score)” value came to 0.12.
Turning to `CC(C)NC[C@H](O)COc1cccc2ccccc12` [(S)-Propranolol hydrochloride], the “S-phase gammaH2AX median (Z-score)” value was 0.367.
As for `Clc1ccc(C(c2ccc(Cl)cc2)[n+]2ccn(CC(OCc3ccc(Cl)cc3Cl)c3ccc(Cl)cc3Cl)c2)cc1` (configuration not stated) [Calmidazolium chloride], the “S-phase gammaH2AX median (Z-score)” value was -0.115.
The value for `C[C@H]1O[C@@H](n2cc(F)c(=O)[nH]c2=O)[C@H](O)[C@@H]1O` [5-fluoro-5'-deoxyuridine] was -0.126; that for `O=C(O)C=C1CCCc2ccccc2C1O` (configuration not stated) was 0.0875.
Turning to `CC(=O)CCCCn1c(=O)c2c(ncn2C)n(C)c1=O` [Pentoxifylline], the “S-phase gammaH2AX median (Z-score)” value worked out at 0.0639.
Next, `CN(C)CCOc1ccc(-c2nc(-c3ccncc3)c(-c3ccc4c(c3)CC/C4=N\O)[nH]2)cc1`: 0.248.
Take `Cc1ccnc(NS(=O)(=O)c2ccc(NC(=O)Nc3ccc(S(=O)(=O)Nc4nccc(C)n4)cc3)cc2)n1`: the “S-phase gammaH2AX median (Z-score)” value was found to be 0.00657.
The value for `COc1c(C)c2c(c(O)c1C/C=C(\C)CCC(=O)O)C(=O)OC2` [Mycophenolic (Mycophenolate)] was -0.0159; that for `NC[C@@H](O)c1ccc(O)c(O)c1` [L(-)-Norepinephrine bitartrate] was 0.0214.
The value for `Nc1nc(Cl)nc2c1ncn2[C@@H]1O[C@H](COP(=O)(O)OP(=O)(O)OP(=O)(O)O)[C@H](O)C1O` (some centres not stated) [2-Chloroadenosine triphosphate tetrasodium] was 0.0233; that for `Oc1cc2c(cc1O)CN(C(=S)NCCc1ccc(Cl)cc1)CCC2` [Capsazepine] was -0.00971; that for `COc1ccc(CCN2CCN(CCCc3ccccc3)CC2)cc1OC` was 0.115.
The value for `O=C1Cc2c([nH]c3ccc(Br)cc23)-c2ccccc2N1` [Kenpaullone] was -0.441; that for `CNCCCC12CCC(c3ccccc31)c1ccccc12` [Maprotiline hydrochloride] was -0.218; that for `COc1ccc2c(c1)c(CC(=O)N1CCOCC1)c(C)n2C(=O)c1ccc(Cl)cc1` [Indomethacin morpholinylamide] was 0.0661.
On to `C[C@]12C=CC(=O)C=C1CC[C@H]1[C@@H]3C[C@@H](O)[C@](O)(C(=O)CO)[C@@]3(C)C[C@H](O)[C@@]12F` [Triamcinolone], for which the “S-phase gammaH2AX median (Z-score)” value is -0.0467.
Next, `N#Cc1ccc(COC[C@H]2O[C@@H](n3c(NCc4ccc(Cl)c(Cl)c4)nc4c(N)ncnc43)[C@H](O)[C@@H]2O)cc1`: -0.0321; `CCCCCCCC/C=C\CCCCCCCC(=O)NCCO` [N-Oleoylethanolamine]: 0.156.
Consider `CNCC[C@@H](Oc1ccc(C(F)(F)F)cc1)c1ccccc1` [R-(-)-Fluoxetine hydrochloride], for which the “S-phase gammaH2AX median (Z-score)” value is -0.148.
For the molecule `Cn1ccnc1` [1-Methylimidazole], the “S-phase gammaH2AX median (Z-score)” value was 0.0591.
As to `CCN(CC)CCOC(=O)c1ccc(N)cc1` [Procaine hydrochloride], the “S-phase gammaH2AX median (Z-score)” value is -0.0378.
`N#C/C(=C\c1ccc(O)c(O)c1)C(=O)NCCc1ccccc1` [Tyrphostin AG 698]: the “S-phase gammaH2AX median (Z-score)” value was -0.227.
Regarding `O=C(O)Cc1cccc(OCCCN(Cc2cccc(C(F)(F)F)c2Cl)CC(c2ccccc2)c2ccccc2)c1`, the “S-phase gammaH2AX median (Z-score)” value is 0.0893.
Next, `O=c1cc(-c2ccccc2)[nH]c2nc(Cl)ccc12` [7-Chloro-4-hydroxy-2-phenyl-1,8-naphthyridine]: 0.0641.
Turning to `O=c1[nH]c(=O)c2nc3ccccc3nc2[nH]1` [Alloxazine], the “S-phase gammaH2AX median (Z-score)” value was -0.0641.
The value for `CC(=O)O[C@H]1C[C@@]2(C)[C@@H](C[C@@H](O)[C@H]3[C@@]4(C)CC[C@@H](O)[C@@H](C)[C@@H]4CC[C@@]32C)/C1=C(\CCC=C(C)C)C(=O)O` [Fusidic acid sodium] was -0.0724.
Next, `CC(=O)N[C@@H](CS)C(=O)O` [N-Acetyl-L-Cysteine]: 0.0641; `C[C@]1(c2nc3c(C(N)=O)cccc3[nH]2)CCCN1` [ABT-888 (Veliparib)]: 0.204.
Next, `O=c1[nH]c2cc(C(F)(F)F)ccc2n1-c1cc(C(F)(F)F)ccc1O`: 0.222; `N[C@@H](CCCC(=O)O)C(=O)O` [L-2-aminoadipic acid]: 0.0214; `CCCCCCCCCC[Si](C)(C)CCC(=O)NC(Cc1ccc(C)cc1)c1ccccc1` (configuration not stated) [Sandoz 58-035]: -0.0233.
Regarding `COC(=O)Nc1ccc(-c2nc(N3CCOCC3)c3cnn(C4CCN(C(=O)OC)CC4)c3n2)cc1`, the “S-phase gammaH2AX median (Z-score)” value was -0.0808.
For `NC(=O)OCC(COC(N)=O)c1ccccc1` [Felbamate], the “S-phase gammaH2AX median (Z-score)” value is -0.0724.
For `CCCCS(=N)(=O)CCC(N)C(=O)O` (racemic) [DL-Buthionine-[S,R]-sulfoximine], the “S-phase gammaH2AX median (Z-score)” value was -0.033.
The value for `COc1ccccc1NC(=O)Nc1nc(-c2cccnc2)nc2ccccc12` was 0.133; that for `COCc1nc2c([nH]1)c(=O)n(C)c(=O)n2CC(C)C` [8-Methoxymethyl-3-isobutyl-1-methylxanthine] was 0.0639.
The value for `CC(C)n1c(/C=C/C(O)CC(O)CC(=O)O)c(-c2ccc(F)cc2)c2ccccc21` (configuration not stated) [Fluvastatin sodium (Lescol)] was 0.153.
Turning to `CCCCNc1cc(C(=O)O)cc(S(N)(=O)=O)c1Oc1ccccc1` [Bumetanide], the “S-phase gammaH2AX median (Z-score)” value was found to be 0.0874.
In the case of `NC(N)=NC(N)=Nc1ccccc1` [1-Phenylbiguanide], the “S-phase gammaH2AX median (Z-score)” value is -0.0946.
The value for `NCCc1ccc(O)c(O)c1` [Dopamine hydrochloride] was -0.0157.
In the case of `O=C(/C=C/c1cccnc1)NCCCCC1CCN(C(=O)c2ccccc2)CC1`, the “S-phase gammaH2AX median (Z-score)” value is 0.0251.
Next, `C[C@H](Cc1ccc(O)c(O)c1)[C@@H](C)Cc1ccc(O)c(O)c1`: -0.156.
For `C[C@H](CS)C(=O)N1CCC[C@H]1C(=O)O` [Captopril], the “S-phase gammaH2AX median (Z-score)” value was -0.00971.
Next, `Cn1cnc2c(F)c(Nc3ccc(Br)cc3Cl)c(C(=O)NOCCO)cc21` [AZD6244 (Selumetinib)]: 0.0932.
Turning to `NC(=O)c1ccccc1` [Benzamide], the “S-phase gammaH2AX median (Z-score)” value is -0.0816.
Turning to `Nc1ncnc2c1ncn2C1CCCC1` [9-cyclopentyladenine], the “S-phase gammaH2AX median (Z-score)” value is -0.068.
Turning to `O=C1NC(c2cccc([N+](=O)[O-])c2)=CCN1c1ccccc1O` [Icilin], the “S-phase gammaH2AX median (Z-score)” value is -0.11.
The value for `CCCN(CC1CC1)c1nc(C)nc(Nc2c(Cl)cc(Cl)cc2Cl)c1Cl` was 0.0882.
The value for `CCCCCC(O)CCCC(=O)O` (configuration not stated) [5-hydroxydecanoic acid sodium] was -0.00945; that for `N#CC1(c2ccc(NC(=O)c3cccnc3NCc3ccncc3)cc2)CCCC1` [Apatinib (YN968D1)] was -0.0607.
On to `Nc1nc(N)c2nc(-c3ccccc3)c(N)nc2n1` [Triamterene], for which the “S-phase gammaH2AX median (Z-score)” value is 0.
Next, `Cc1ccc(C(=O)N(CCCN)[C@@H](c2oc3cc(Cl)ccc3c(=O)c2Cc2ccccc2)C(C)C)cc1`: -0.101.
In the case of `Cn1nnc2c(C(N)=O)ncn2c1=O` [Temozolomide], the “S-phase gammaH2AX median (Z-score)” value came to 0.0197.
Next, `CN1[C@@H]2CC[C@H]1C[C@@H](OC(=O)C(O)c1ccccc1)C2` (mixture of isomers) [DL-Homatropine hydrobromide]: 0.0189; `C[C@]12CC[C@H](O)CC1=CC[C@@H]1[C@@H]2CC[C@]2(C)C(c3cccnc3)=CC[C@@H]12` [Abiraterone (CB-7598)]: 0.0329; `C=C1C(=O)O[C@H]2[C@H]1CC/C(C)=C/CC[C@@]1(C)O[C@@H]21` [Parthenolide]: 0.125.
The value for `CC(CN(C)C)CN1c2ccccc2CCc2ccccc21` (configuration not stated) [Trimipramine maleate] was -0.38.
The value for `COC(=O)[C@H]1[C@H]2C[C@H]3c4[nH]c5ccccc5c4CCN3C[C@H]2CC[C@@H]1O` [Rauwolscine hydrochloride] was 0.207; that for `COC(=O)C(C)(N)Cc1ccc(O)cc1` (racemic) [alpha-Methyl-DL-tyrosine methyl ester hydrochloride] was -0.0213; that for `CC(C)NCC(O)COc1cccc2[nH]ccc12` (configuration not stated) [Pindolol] was -0.0213.
`CC(C)C(=O)c1c(C(C)C)nn2ccccc12` [Ibudilast]: the “S-phase gammaH2AX median (Z-score)” value was found to be 0.0535.
In the case of `Nc1ncnc2c1ncn2[C@@H]1O[C@@H]2COP(=O)(O)O[C@H]2[C@H]1O` [Adenosine 3',5'-cyclic monophosphate], the “S-phase gammaH2AX median (Z-score)” value amounted to 0.0408.
Next, `CC12CC3CC(C)(C1)CC(N)(C3)C2` [Memantine hydrochloride]: 0.147.
On to `O=C(Nc1cccnc1)N1CCC(Cc2cccc(Oc3ccc(C(F)(F)F)cn3)c2)CC1`, for which the “S-phase gammaH2AX median (Z-score)” value is 0.0336.
Turning to `O=C(Nc1ccc([N+](=O)[O-])cc1Cl)c1cc(Cl)ccc1O` [Niclosamide], the “S-phase gammaH2AX median (Z-score)” value was found to be 0.0378.
On to `C#C[C@]1(O)CC[C@H]2[C@@H]3CCC4=Cc5oncc5C[C@]4(C)[C@H]3CC[C@@]21C` [Danazol], for which the “S-phase gammaH2AX median (Z-score)” value came out at 0.0661.
The value for `Cc1cccc(-c2nn3c(c2-c2ccnc4ccc(C(N)=O)cc24)CCC3)n1` was -0.00193; that for `CO[C@H]1C[C@@H]2CC[C@@H](C)[C@@](O)(O2)C(=O)C(=O)N2CCCC[C@H]2C(=O)O[C@H]([C@H](C)C[C@@H]2CC[C@@H](OC(=O)C(C)(CO)CO)[C@H](OC)C2)CC(=O)[C@H](C)/C=C(\C)[C@@H](O)[C@@H](OC)C(=O)[C@H](C)C[C@H](C)/C=C/C=C/C=C/1C` [Temsirolimus (Torisel)] was -0.147; that for `CN(C(=O)CCCOc1ccc2[nH]c(=O)ccc2c1)C1CCCCC1` [Cilostamide] was -0.0175.
As to `CN1CCN(c2ccc3nc(-c4c(N)c5c(F)cccc5[nH]c4=O)[nH]c3c2)CC1` [Dovitinib (TKI-258)], the “S-phase gammaH2AX median (Z-score)” value stood at 4.45.
As to `N[C@@H](COP(=O)(O)O)C(=O)O` [O-Phospho-L-serine], the “S-phase gammaH2AX median (Z-score)” value worked out at 0.0142.
As to `CCCCc1oc2ccccc2c1C(=O)c1cc(I)c(OCCN(CC)CC)c(I)c1` [Amiodarone hydrochloride], the “S-phase gammaH2AX median (Z-score)” value was determined as 0.00777.
Consider `O=C(O)c1cc2cc(F)ccc2[nH]1` [5-Fluoroindole-2-carboxylic acid], for which the “S-phase gammaH2AX median (Z-score)” value was -0.0854.
The value for `CCN1CCCC1CNC(=O)c1cc(S(N)(=O)=O)ccc1OC` (configuration not stated) [(?)-Sulpiride] was 0.474.
Next, `CN1CCN2c3ccccc3Cc3ccccc3C2C1` (configuration not stated) [Mianserin hydrochloride]: 0.0591.
